Test results taken from PMC7188849.

Sequences of proteins named here, by UniProt entry; tags and fusion partners are left off. A change or cut given only in a name is not applied to a line headed by its entry.
UniProt Q14192: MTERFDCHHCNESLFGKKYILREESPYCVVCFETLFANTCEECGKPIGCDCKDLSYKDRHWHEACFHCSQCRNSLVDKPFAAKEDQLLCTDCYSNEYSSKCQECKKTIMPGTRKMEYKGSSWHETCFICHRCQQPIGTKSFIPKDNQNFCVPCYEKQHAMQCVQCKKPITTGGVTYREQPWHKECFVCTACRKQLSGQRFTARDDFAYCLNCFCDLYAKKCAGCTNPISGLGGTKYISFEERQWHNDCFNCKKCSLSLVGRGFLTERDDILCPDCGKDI

Target: T1, HA-tagged p57 wildtype (human) (UniProt P49918)
T1 sequence: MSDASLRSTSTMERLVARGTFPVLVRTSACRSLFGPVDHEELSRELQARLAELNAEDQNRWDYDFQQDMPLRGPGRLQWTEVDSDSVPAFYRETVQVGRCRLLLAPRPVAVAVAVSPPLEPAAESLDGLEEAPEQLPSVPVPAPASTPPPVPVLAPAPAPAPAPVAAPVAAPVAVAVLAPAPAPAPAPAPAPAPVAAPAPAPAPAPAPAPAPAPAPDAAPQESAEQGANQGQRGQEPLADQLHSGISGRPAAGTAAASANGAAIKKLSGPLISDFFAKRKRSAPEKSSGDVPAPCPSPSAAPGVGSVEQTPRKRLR
Experiment: co-IP; HA-IP of HA-p57 from lysates of transfected 293 T cells, 4 hours at 4 °C, IP-buffer; bound FLAG-FHL2 proteins detected with anti-FLAG, endogenous CDKs with anti-PSTAIR

binding: binds
Substance: FLAG-tagged FHL2 LIM2-4 mutant (from UniProt Q14192) (domain or fragment)

These are yes or no findings as the source states them, for the method shown. Binding seen in cells or lysates may run through a third protein. A result given as binding can be weak or reduced; the word gives no strength. Sequences can lack the tags named with a protein.
